Laboratory results published in patent US5116974A, “3-carbalkoxyamino-5-aminoacyl-5H-dibenz[b,f]azepines, and methods for making” (Arzneimittelwerk Dresden GmbH, priority 1989, dated 1992).

Test: in vivo
Settings: rat, iv, male or female Wistar rats, i.v. tail vein, Probit regression, confidence interval p=0.05 in parentheses, read-out: LD50 i.v. (acute tox., rat)
Source text: LD50 i.v. =lethal dose in mg/kg for 50% of the experimental animals of an orientating acute toxicity test on male or female Wistar rats of our own breed, i.v. administration in the tail vein, 3-4 dosages, 10 animals per group. Data analyzed by the Probit regression analysis with a confidence interval of p=0.05 (values given in parentheses).

CCN(CC)CC(=O)Nc1c(C)cccc1C [Lidocaine, lidocaine, reference compound]
LD50: 18 mg/kg
